This note sets out measurements from the supplement of paper PMC4635364.

Counter-ions that a name gives are not always drawn. The list shows a part of the results. Repeats in this data set agree poorly, so a single value says little.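 Cells: ReNCell VM human fetal ventral-midbrain neural progenitors, differentiated mitogen-free. Blinded raters compared doublecortin-stained (early neurons) or tyrosine hydroxylase-stained (dopaminergic neurons) images with untreated wells, where 0 means no change. After repeats and both raters were averaged, compounds scoring 2 or above became hits for retesting.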

The subject of test [1] is ReNCell VM. The test can be described thus: neuronal differentiation score (DCX+ cell fraction vs untreated, manual image score) (score (-3 to 3)); higher = more neuronal differentiation. Conditions: 2 uM, 2 weeks.
Test [2] concerns ReNCell VM. The experiment in a line: dopaminergic neuron differentiation score (TH+ cell fraction vs untreated, manual image score) (score (0 to 3)); higher = more TH+ dopaminergic neuron differentiation. Conditions: 2 uM, 4 weeks, BDNF 10 ng/ml + GDNF 10 ng/ml.

`Cc1cc2cc3c(C)cc(=O)oc3c(C)c2o1` [Trioxsalen]: in test [1] (library: Prestwick), the neuronal differentiation score was inactive: 0. In addition, in test [2] (library: Prestwick), the “dopaminergic neuron differentiation score” value was inactive: 1.

`Oc1nc2cc(Cl)c(Cl)cc2nc1O`: the neuronal differentiation score in test [1] (library: Spectrum) was inactive: 0. In addition, the “dopaminergic neuron differentiation score” value in test [2] (library: Spectrum) is inactive: 0.

In the case of `C[C@]12CCC(=O)C=C1CC[C@@H]1[C@@H]2[C@@H](O)C[C@@]2(C)[C@H]1CC[C@]2(O)C(=O)CO` [Hydrocortisone base], the neuronal differentiation score in test [1] (library: Prestwick) is inactive: 0. Moreover, the “dopaminergic neuron differentiation score” value in test [2] (library: Prestwick) was inactive: 0.

`CCCCC1C(=O)N(c2ccccc2)N(c2ccc(O)cc2)C1=O` (centres undefined) [Oxyphenbutazone]: the neuronal differentiation score in test [1] (library: Prestwick) was inactive: 0. Further, the “dopaminergic neuron differentiation score” value in test [2] (library: Prestwick) is inactive: 1.

`O=c1ccc2cc(O)c(O)cc2o1` [Esculetin]: the neuronal differentiation score in test [1] (library: Phytochemical) is inactive: 0. The “dopaminergic neuron differentiation score” value in test [2] (library: Phytochemical) is inactive: 0.

As to `CCCCC[C@H](CC(=O)NO)C(=O)N[C@H](C(=O)N1CCC[C@H]1CO)C(C)C`, the neuronal differentiation score in test [1] (library: Spectrum) was inactive: 0. In addition, in test [2] (library: Spectrum), the “dopaminergic neuron differentiation score” value is inactive: 0.

For `CC(=O)Oc1cc2c(c(C)c1OC(C)=O)CC=C1[C@@]2(C)CC[C@@]2(C)C3C[C@](C)(C(=O)O)CC[C@]3(C)CC[C@]12C` (some centres undefined), in test [1] (library: Spectrum), the neuronal differentiation score was inactive: 0. Moreover, the “dopaminergic neuron differentiation score” value in test [2] (library: Spectrum) was inactive: 0.

`Cc1ccc(Cl)c(Nc2ccccc2C(=O)O)c1Cl`: the neuronal differentiation score in test [1] (library: Spectrum) is inactive: -1. Also, in test [2] (library: Spectrum), the “dopaminergic neuron differentiation score” value is inactive: 0.

`Sc1nc2ccccc2s1`: the neuronal differentiation score in test [1] (library: Spectrum) was inactive: 0. In test [2] (library: Spectrum), the “dopaminergic neuron differentiation score” value is inactive: 0.

In the case of `CC(COc1ccc(/C=C/c2ccccc2)cc1)[N+](C)(C)C` (centres undefined), in test [1] (library: LOPAC), the neuronal differentiation score was inactive: 0. The “dopaminergic neuron differentiation score” value in test [2] (library: LOPAC) was inactive: 0.

As for `Nc1[nH]cnc2ncnc1-2`, the neuronal differentiation score in test [1] (library: Spectrum) was inactive: -1. The “dopaminergic neuron differentiation score” value in test [2] (library: Spectrum) was inactive: 0.

Regarding `O=C(O)COc1cccc(-c2ocnc2-c2nc(-c3ccccc3)c(-c3ccccc3)o2)c1`, in test [1] (library: Tocriscreen), the neuronal differentiation score is inactive: 0. Besides, the “dopaminergic neuron differentiation score” value in test [2] (library: Tocriscreen) is inactive: 0.

As for `O=c1c(O)c(-c2ccc(O)c(O)c2)oc2cc(O)cc(O)c12` [Quercetin], in test [1] (library: Tocriscreen), the neuronal differentiation score was inactive: 0. In test [2] (library: Tocriscreen), the “dopaminergic neuron differentiation score” value was active: 3.

On to `O=C(CCCN1CCC(O)(c2cccc(C(F)(F)F)c2)CC1)c1ccc(F)cc1` [Trifluperidol hydrochloride], for which, in test [1] (library: LOPAC), the neuronal differentiation score is inactive: 0. Besides, the “dopaminergic neuron differentiation score” value in test [2] (library: LOPAC) was inactive: 0.

Take `Cc1cc2nc3c(=O)[nH]c(=O)nc-3n(CC(O)C(O)C(O)CO)c2cc1N(C)C` (centres undefined) [Roseoflavin]: the neuronal differentiation score in test [1] (library: Phytochemical) is inactive: 0. Besides, the “dopaminergic neuron differentiation score” value in test [2] (library: Phytochemical) was inactive: 0.

Consider `O=C(CCCl)NCCc1ccccc1`, for which the neuronal differentiation score in test [1] (library: Spectrum) was inactive: 0. Further, the “dopaminergic neuron differentiation score” value in test [2] (library: Spectrum) is inactive: 0.

With `C=CCNC(=O)c1cc([N+](=O)[O-])cc2c(=O)[nH]c(Nc3ccc(Cl)c(Cl)c3)nc12`, the neuronal differentiation score in test [1] (library: Tocriscreen) is inactive: 0. Further, in test [2] (library: Tocriscreen), the “dopaminergic neuron differentiation score” value was inactive: 0.

For the compound `O=C1c2c(O)ccc(O)c2C(=O)c2c(NCCNCCO)ccc(NCCNCCO)c21`, the neuronal differentiation score in test [1] (library: Spectrum) was inactive: 0. Further, the “dopaminergic neuron differentiation score” value in test [2] (library: Spectrum) is inactive: 0.

Consider `C[C@]12CC[C@@H]3c4ccc(O)cc4CC[C@H]3[C@@H]1CC[C@@H]2O`, for which the neuronal differentiation score in test [1] (library: Spectrum) is inactive: 0. In test [2] (library: Spectrum), the “dopaminergic neuron differentiation score” value is inactive: 0.

In the case of `CN1C(=O)OC(C)(C)C1=O` [Trimethadione], in test [1] (library: Prestwick), the neuronal differentiation score was inactive: 0. Further, the “dopaminergic neuron differentiation score” value in test [2] (library: Prestwick) was inactive: 0.

Take `CN(C)c1ccc2nc3ccc(=[N+](C)C)cc-3sc2c1`: the neuronal differentiation score in test [1] (library: Spectrum) was inactive: -3. In test [2] (library: Spectrum), the “dopaminergic neuron differentiation score” value was inactive: 0.

Consider `Oc1c(I)cc(Cl)c2cccnc12`, for which the neuronal differentiation score in test [1] (library: Spectrum) is inactive: 0. Further, the “dopaminergic neuron differentiation score” value in test [2] (library: Spectrum) is inactive: 0.

`Oc1ccc([C@@H]2CNCc3sccc32)cc1O`: the neuronal differentiation score in test [1] (library: LOPAC) is inactive: 0. Besides, the “dopaminergic neuron differentiation score” value in test [2] (library: LOPAC) was inactive: 0.

With `CC(C)(C)NCC(O)c1ccc(O)c(CO)c1` (centres undefined), the neuronal differentiation score in test [1] (library: Spectrum) is inactive: 0. Besides, the “dopaminergic neuron differentiation score” value in test [2] (library: Spectrum) is inactive: 0.

Regarding `CN(C)S(=O)(=O)c1ccc2c(c1)/C(=C/c1cc3c([nH]1)CCCC3)C(=O)N2`, the neuronal differentiation score in test [1] (library: LOPAC) is inactive: 0. The “dopaminergic neuron differentiation score” value in test [2] (library: LOPAC) was inactive: 0.

Consider `O=C(O)C(=O)O.[NH-][C@@H]1CCCC[C@H]1[NH-].[Pt+2]` [Oxaliplatin], for which the neuronal differentiation score in test [1] (library: Tocriscreen) is inactive: 0. The “dopaminergic neuron differentiation score” value in test [2] (library: Tocriscreen) is inactive: 0.

As to `Cc1cc(I)ccc1Nc1c(C(=O)NOCC2CC2)cc(F)c(F)c1F`, the neuronal differentiation score in test [1] (library: Tocriscreen) is inactive: 0. Also, the “dopaminergic neuron differentiation score” value in test [2] (library: Tocriscreen) was inactive: 0.

For `O=C(O)CNC(=O)C(CS)Cc1ccccc1` (racemic) [DL-Thiorphan], the neuronal differentiation score in test [1] (library: LOPAC) is inactive: 0. Further, the “dopaminergic neuron differentiation score” value in test [2] (library: LOPAC) is inactive: 0.

Take `Cc1cc(C)nc(NS(=O)(=O)c2ccc(N)cc2)n1` [Sulfamethazine sodium salt]: the neuronal differentiation score in test [1] (library: Prestwick) is inactive: 0. Moreover, the “dopaminergic neuron differentiation score” value in test [2] (library: Prestwick) was inactive: 0.

In the case of `Cc1occc(=O)c1O`, the neuronal differentiation score in test [1] (library: Spectrum) is inactive: 0. Moreover, the “dopaminergic neuron differentiation score” value in test [2] (library: Spectrum) was inactive: 0.

Take `CCCn1c(=O)c2c(ncn2C)n(CCC)c1=O` [1,3-Dipropyl-7-methylxanthine]: the neuronal differentiation score in test [1] (library: LOPAC) is inactive: 1. The “dopaminergic neuron differentiation score” value in test [2] (library: LOPAC) was inactive: 0.

Turning to `COC(=O)Nc1nc2cc([S+]([O-])c3ccccc3)ccc2[nH]1` (centres undefined), in test [1] (library: Spectrum), the neuronal differentiation score was inactive: 1. In test [2] (library: Spectrum), the “dopaminergic neuron differentiation score” value is inactive: 0.

`COc1ccccc1N1CCN(CCN(C(=O)c2ccc(I)cc2)c2ccccn2)CC1` [p-MPPI hydrochloride]: in test [1] (library: LOPAC), the neuronal differentiation score is inactive: 0. Further, the “dopaminergic neuron differentiation score” value in test [2] (library: LOPAC) was inactive: 0.

With `CNC[C@H](O)c1ccc(O)c(O)c1`, in test [1] (library: Spectrum), the neuronal differentiation score was inactive: 0. For the same compound, the “dopaminergic neuron differentiation score” value in test [2] (library: Spectrum) was inactive: 0.

Turning to `O=C1c2ccccc2-n2c1nc1ccccc1c2=O` [tryptanthrin], the neuronal differentiation score in test [1] (library: Natural) is active: 3. Further, in test [2] (library: Natural), the “dopaminergic neuron differentiation score” value was inactive: 0.

With `OC[C@H]1O[C@H](OCC2O[C@@H](O)[C@H](O)[C@@H](O)[C@@H]2O)[C@H](O)[C@@H](O)[C@H]1O` (some centres undefined), the neuronal differentiation score in test [1] (library: Spectrum) was inactive: 0. Besides, in test [2] (library: Spectrum), the “dopaminergic neuron differentiation score” value is active: 3.

In the case of `COc1ccc(C(C)=O)c(O)c1`, the neuronal differentiation score in test [1] (library: Spectrum) was inactive: 0. Further, the “dopaminergic neuron differentiation score” value in test [2] (library: Spectrum) is inactive: 0.
